# Publication PMC12670160, “A drug-repurposing screen of FDA- and EMA-approved drugs identifies two NF-κB inhibitors active against eumycetoma” (Journal of Antimicrobial Chemotherapy, 2025)
# Counter-ions that a name gives are not always drawn. The whole screen tested about 5,300 compounds, of which about 130 (2.5%) showed an effect of 50% or more. The list shows a part of the results. Square brackets hold non-standard residues; d marks the D form. Peptide text beside a SMILES is read from it.
# Tested on: M. mycetomatis strain mm55
# Settings: primary screen, metabolic activity vs growth control; 96 h, 2 µM; inhibitor
row,Structure (SMILES),% viability [%]
1,"Cc1coc2c1C(=O)C(=O)c1c-2ccc2c1CCCC2(C)C [ONC0005254, tanshinone iia tanshinone b]",103.2
2,"CNCCCC12CCC(c3ccccc31)c1ccccc12 [ONC0005591, maprotiline hydrochloride]",104.4
3,"CCc1c(O)cc(O)c(C(=O)c2ccc(OCCN3CCOCC3)c(OC)c2)c1CC(=O)N(CCOC)CCOC [ONC0004413, kw2478]",116.6
4,"O=C1Cc2c([nH]c3ccc(Br)cc23)-c2ccccc2N1 [ONC0003056, kenpaullone]",78.06
5,"COc1ccc(CCN2CCN(CCCc3ccccc3)CC2)cc1OC [ONC0000181, cutamesine]",57.86
6,"OC(c1cc(C(F)(F)F)nc2c(C(F)(F)F)cccc12)C1CCCCN1 (stereo not shown) [ONC0002823, mefloquine hydrochloride]",88.08
7,"COc1ccc2c(c1)c(CC(=O)N1CCOCC1)c(C)n2C(=O)c1ccc(Cl)cc1 [ONC0005055, bml190]",69.14
8,"CC(C)(C)n1nc(-c2cccc3ccccc23)c2c(N)ncnc21 [ONC0000858, 1naphthylpp1]",54.79
9,"C[C@@H]1C[C@H]2[C@@H]3C[C@H](F)C4=CC(=O)C=C[C@]4(C)[C@@]3(Cl)[C@@H](O)C[C@]2(C)[C@H]1C(=O)COC(=O)C(C)(C)C [ONC0002815, clocortolonepivalate]",83.51
10,"O=C(O[C@@H]1Cc2c(O)cc(O)cc2O[C@@H]1c1ccc(O)c(O)c1)c1cc(O)c(O)c(O)c1 [ONC0001169, epicatechin gallate]",138
11,"COC(=O)N[C@H](C(=O)N1CC2(CC2)C[C@H]1c1ncc(-c2ccc3c(c2)C(F)(F)c2cc(-c4ccc5nc([C@@H]6[C@H]7CC[C@H](C7)N6C(=O)[C@@H](NC(=O)OC)C(C)C)[nH]c5c4)ccc2-3)[nH]1)C(C)C [ONC0001967, ledipasvir]",73.81
12,"CCCCCCC(=O)OC1CC(C)(C)NC(C)(C)C1 [ONC0000017, tmph]",78.92
13,"Cc1c(C)c2c(c(C)c1OC(=O)CCC(=O)O)CC[C@@](C)(CCC[C@H](C)CCC[C@H](C)CCCC(C)C)O2 [ONC0002768, dalphatocopheryl succinate]",141.6
14,"CCCCCC(=O)O[C@]1(C(C)=O)CC[C@H]2[C@@H]3CCC4=CC(=O)CC[C@]4(C)[C@H]3CC[C@@]21C [ONC0000554, hydroxyprogesterone caproate]",87.95
15,"Oc1cc2c(cc1O)CN(C(=S)NCCc1ccc(Cl)cc1)CCC2 [ONC0003537, capsazepine]",106.3
16,"CC1(C)C[C@@H]1C(=O)N/C(=C\CCCCSC[C@H](N)C(=O)O)C(=O)O [ONC0000332, cilastatin sodium]",62.86
17,"Cc1cc(C)cc(OCC2CNC(=O)O2)c1 (stereo not shown) [ONC0003959, metaxalone]",81.5
18,"O[C@H]1CC[C@H](Nc2ncc3nc(Nc4c(F)cc(F)cc4F)n([C@H]4CCOC4)c3n2)CC1 [ONC0002078, tanzisertib]",56.93
19,"c1nc2nc(Nc3ccc(N4CCOCC4)cc3)nc(NC3CCCCC3)c2[nH]1 [ONC0000909, reversine]",87.07
20,"CCc1oc2ccccc2c1C(=O)c1ccc(OCC(=O)O)cc1 [ONC0005583, kt433]",75.49
21,"CCN(CCCOc1ccc2c(Nc3cc(CC(=O)Nc4cccc(F)c4)n[nH]3)ncnc2c1)CCOP(=O)(O)O [ONC0002222, azd1152]",73.5
22,"O=C(O)c1ccc(-c2ccc3cc(C45CC6CC(CC(C6)C4)C5)c(O)cc3c2)cc1 [ONC0003535, cd1530]",106.7
23,"O=C(O)[C@H](O)[C@@H](O)[C@H](O[C@@H]1O[C@H](CO)[C@H](O)[C@H](O)[C@H]1O)[C@H](O)CO [ONC0002742, lactobionic acid]",93.71
24,"COc1ccc(NC(=O)c2ccc(C(=N)N(C)C)cc2)c(C(=O)Nc2ccc(Cl)cn2)c1 [ONC0002531, betrixaban]",64.85
25,"CC(C)OC(=O)CNC(=O)[C@H](CS)NC(=O)CC[C@H](N)C(=O)O [ONC0002985, glutathionemonoisopropylester]",70.59
26,"CC(=O)NCC(=O)N[C@H](CCC(=O)O)C(=O)O [ONC0001750, nacetylglycyldglutamicacid] (Ac-Gly-[dE]-OH)",65.78
27,"C[C@@H](O)[C@H]1C(=O)N2C(C(=O)O)=C(S[C@@H]3CN[C@H](C(=O)N(C)C)C3)[C@H](C)[C@H]12 [ONC0004098, meropenem]",114.1
28,"O=C(O)CCNc1cc(N2CCc3ccccc3CC2)nc(-c2cccnc2)n1 [ONC0001873, gskj2]",86.07

# Looked up by structure from the list above, 2 records:
row,Structure (SMILES),% viability [%]
19,"c1nc2nc(Nc3ccc(N4CCOCC4)cc3)nc(NC3CCCCC3)c2[nH]1 [ONC0000909, reversine]",87.07
20,"CCc1oc2ccccc2c1C(=O)c1ccc(OCC(=O)O)cc1 [ONC0005583, kt433]",75.49
